Data reported in article PMC3916320.
These are yes or no findings as the source states them, for the method shown. Binding seen in cells or lysates may run through a third protein. Some binding calls cover weakened binding; strength is not graded here.

The chains behind the UniProt entries cited, without tags or fusion partners.
UniProt Q9Z0J4: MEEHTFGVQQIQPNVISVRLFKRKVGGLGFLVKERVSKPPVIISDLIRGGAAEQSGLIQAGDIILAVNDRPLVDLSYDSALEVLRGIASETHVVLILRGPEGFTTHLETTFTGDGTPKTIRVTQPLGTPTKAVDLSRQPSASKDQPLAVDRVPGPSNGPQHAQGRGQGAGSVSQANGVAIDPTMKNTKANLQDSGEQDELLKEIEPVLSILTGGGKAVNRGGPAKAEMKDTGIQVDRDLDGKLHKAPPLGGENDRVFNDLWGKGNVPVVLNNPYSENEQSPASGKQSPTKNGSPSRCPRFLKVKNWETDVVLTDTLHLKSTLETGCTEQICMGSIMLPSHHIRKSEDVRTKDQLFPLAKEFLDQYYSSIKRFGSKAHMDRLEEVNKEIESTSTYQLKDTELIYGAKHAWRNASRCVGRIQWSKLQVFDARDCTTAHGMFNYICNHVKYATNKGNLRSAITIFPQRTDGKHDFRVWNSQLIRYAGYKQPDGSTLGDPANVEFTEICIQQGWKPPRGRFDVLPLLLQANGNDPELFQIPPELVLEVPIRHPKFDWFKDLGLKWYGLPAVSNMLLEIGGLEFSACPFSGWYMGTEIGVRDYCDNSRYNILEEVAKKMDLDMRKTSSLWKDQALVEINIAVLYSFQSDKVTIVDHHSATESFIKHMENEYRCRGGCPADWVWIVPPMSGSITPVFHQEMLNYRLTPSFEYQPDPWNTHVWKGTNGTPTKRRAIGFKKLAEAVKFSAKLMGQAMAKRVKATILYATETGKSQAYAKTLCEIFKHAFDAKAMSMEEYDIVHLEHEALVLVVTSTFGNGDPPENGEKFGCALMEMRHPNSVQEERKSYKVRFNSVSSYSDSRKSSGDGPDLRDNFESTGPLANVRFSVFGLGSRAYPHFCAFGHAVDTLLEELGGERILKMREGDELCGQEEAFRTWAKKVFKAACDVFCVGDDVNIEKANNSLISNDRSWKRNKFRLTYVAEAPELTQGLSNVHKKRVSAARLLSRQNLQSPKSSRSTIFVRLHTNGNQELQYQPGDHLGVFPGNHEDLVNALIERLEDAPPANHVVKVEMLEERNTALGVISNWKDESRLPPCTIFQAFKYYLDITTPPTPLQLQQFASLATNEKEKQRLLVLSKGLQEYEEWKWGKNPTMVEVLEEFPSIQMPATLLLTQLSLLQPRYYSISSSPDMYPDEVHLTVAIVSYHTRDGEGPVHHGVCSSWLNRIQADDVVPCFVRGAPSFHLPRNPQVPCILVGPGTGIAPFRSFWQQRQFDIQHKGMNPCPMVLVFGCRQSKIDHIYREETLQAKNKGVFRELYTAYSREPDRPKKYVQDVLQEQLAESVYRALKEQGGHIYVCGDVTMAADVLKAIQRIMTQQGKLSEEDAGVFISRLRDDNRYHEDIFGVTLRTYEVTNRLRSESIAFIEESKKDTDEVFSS
UniProt Q99104: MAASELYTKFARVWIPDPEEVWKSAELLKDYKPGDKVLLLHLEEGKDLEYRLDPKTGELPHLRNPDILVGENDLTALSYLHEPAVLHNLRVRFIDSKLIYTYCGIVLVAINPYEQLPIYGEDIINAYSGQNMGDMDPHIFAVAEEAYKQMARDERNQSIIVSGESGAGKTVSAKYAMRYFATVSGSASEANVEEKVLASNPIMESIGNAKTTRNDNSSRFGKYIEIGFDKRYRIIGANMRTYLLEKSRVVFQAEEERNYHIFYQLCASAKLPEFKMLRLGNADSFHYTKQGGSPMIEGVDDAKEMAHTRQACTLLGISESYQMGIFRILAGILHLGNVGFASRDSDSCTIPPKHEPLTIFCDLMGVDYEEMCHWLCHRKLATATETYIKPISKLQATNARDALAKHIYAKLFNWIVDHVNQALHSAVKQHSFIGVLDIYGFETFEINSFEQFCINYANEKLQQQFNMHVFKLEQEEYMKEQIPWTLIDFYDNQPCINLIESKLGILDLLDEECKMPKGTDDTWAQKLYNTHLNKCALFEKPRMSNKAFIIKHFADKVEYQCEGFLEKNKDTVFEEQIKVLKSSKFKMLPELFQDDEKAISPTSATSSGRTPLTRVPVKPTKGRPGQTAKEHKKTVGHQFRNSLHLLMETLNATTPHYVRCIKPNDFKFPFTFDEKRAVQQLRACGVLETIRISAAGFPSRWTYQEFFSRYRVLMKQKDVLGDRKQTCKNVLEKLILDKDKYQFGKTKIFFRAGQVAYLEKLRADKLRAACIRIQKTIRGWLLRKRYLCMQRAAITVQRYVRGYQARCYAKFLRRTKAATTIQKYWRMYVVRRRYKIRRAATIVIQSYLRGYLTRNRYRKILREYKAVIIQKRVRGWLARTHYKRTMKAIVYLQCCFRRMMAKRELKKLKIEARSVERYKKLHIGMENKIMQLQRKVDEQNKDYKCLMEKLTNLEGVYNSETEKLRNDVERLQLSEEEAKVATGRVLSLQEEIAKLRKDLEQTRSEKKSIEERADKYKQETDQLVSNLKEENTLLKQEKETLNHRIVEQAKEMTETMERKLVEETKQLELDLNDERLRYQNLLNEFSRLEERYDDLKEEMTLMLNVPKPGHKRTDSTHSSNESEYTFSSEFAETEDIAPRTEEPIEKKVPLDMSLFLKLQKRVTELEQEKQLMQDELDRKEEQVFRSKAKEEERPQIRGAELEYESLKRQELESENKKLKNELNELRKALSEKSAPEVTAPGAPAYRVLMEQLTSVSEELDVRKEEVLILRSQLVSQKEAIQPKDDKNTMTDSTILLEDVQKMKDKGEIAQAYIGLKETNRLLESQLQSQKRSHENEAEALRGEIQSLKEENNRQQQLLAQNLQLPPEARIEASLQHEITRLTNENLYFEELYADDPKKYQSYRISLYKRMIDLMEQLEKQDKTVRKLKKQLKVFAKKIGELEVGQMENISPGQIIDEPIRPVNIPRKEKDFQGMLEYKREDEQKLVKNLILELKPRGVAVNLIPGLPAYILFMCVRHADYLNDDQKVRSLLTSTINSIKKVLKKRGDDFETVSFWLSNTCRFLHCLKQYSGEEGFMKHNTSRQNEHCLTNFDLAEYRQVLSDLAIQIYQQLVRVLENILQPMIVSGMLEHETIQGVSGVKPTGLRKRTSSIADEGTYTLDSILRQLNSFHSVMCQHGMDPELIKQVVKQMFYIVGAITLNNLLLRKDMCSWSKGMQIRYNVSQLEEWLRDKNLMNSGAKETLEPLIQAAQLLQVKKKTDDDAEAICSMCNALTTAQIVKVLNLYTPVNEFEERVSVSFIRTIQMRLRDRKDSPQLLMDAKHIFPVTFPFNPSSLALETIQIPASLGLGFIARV

Biological target: neuronal nitric oxide synthase (nNOS) of gastric fundus (mouse (endogenous in C57BL/6J gastric fundus)) (UniProt Q9Z0J4)
Test: co-IP; anti-nNOS antibody covalently coupled to M-270 epoxy Dynabeads, incubated 1 hour at 4°C with tissue lysates of WT mouse fundus (1.7 mg/ml) or CCP (3.4 mg/ml); IP extraction buffer with 100 mM NaCl, 2 mM MgCl2, 1 mM DTT, protease inhibitors; eluate blotted for myosin Va

binding: binds
Substance: myosin Va (from UniProt Q99104 1-1853)
